{"source": "the supplement of paper PMC7824004", "note": "The other results are listed elsewhere or left out. The data scatter; read single values as rough.", "data": [{"system": "Candida albicans SN425", "test": "biofilm OD600 B-score; higher = more biofilm (less inhibition)", "conditions": "10 µM; assay detail: High-throughput adherence inhibition optical density biofilm assay with C. albicans SN425 in RPMI-1640/MOPS pH 7.0, 384-well plates. …", "experimental": "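High-throughput adherence inhibition optical density biofilm assay with C. albicans SN425 in RPMI-1640/MOPS pH 7.0, 384-well plates. Compound (10 µM) was present only during the 90 min adherence step, then washed out, and the biofilm grew 24 h without compound. Biofilm was read as OD600 after removing the media. Scores are the difference from the mean in standard deviations and the plate B-score.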", "values": [{"smiles": "CCN1CCN(CC2CC3C=CC2C3)CC1", "note": "(stereo not given)", "biofilm OD600 B-score": -1}, {"smiles": "COc1ccc(C(=O)Nc2cccc(NC(C)=O)c2)cc1OC", "biofilm OD600 B-score": 1.45}, {"smiles": "O=C(Nc1ccccc1F)c1ccc2snnc2c1", "biofilm OD600 B-score": -0.433}, {"smiles": "O=C(NCc1ccccc1)Nc1ccc2snnc2c1", "biofilm OD600 B-score": -0.879}, {"smiles": "Cc1cccc(C)c1OCCCN(C)C", "biofilm OD600 B-score": -1.22}, {"smiles": "Cc1ccc(CN2CCN(Cc3ccccc3)CC2)o1", "biofilm OD600 B-score": -2.05}, {"smiles": "CC(C)(C)c1ccc(S(=O)(=O)N2CCNCC2)cc1", "biofilm OD600 B-score": -0.107}, {"smiles": "COc1cc(OC)c(OC)cc1CN1CCC(O)CC1", "biofilm OD600 B-score": -0.0642}, {"smiles": "Cc1oc(-c2ccccc2)cc1C(N)=O", "biofilm OD600 B-score": -0.534}, {"smiles": "COc1c(Cl)cccc1NC(=O)c1cccs1", "biofilm OD600 B-score": -1.81}, {"smiles": "O=C(O)C1C2C=CC(C2)C1C(=O)N1CCCC1", "note": "(stereo not given)", "biofilm OD600 B-score": 0.636}, {"smiles": "CC1CN(C(=O)c2cccs2)C(C)CN1C(=O)c1cccs1", "note": "(stereo not given)", "biofilm OD600 B-score": -0.92}, {"smiles": "CCCC(=O)Nc1ccccc1NC(=O)c1ccc(Br)o1", "biofilm OD600 B-score": -0.378}, {"smiles": "Nn1c(CCC(=O)O)nc2sc3c(c2c1=O)CCCC3", "biofilm OD600 B-score": 0.0183}, {"smiles": "CC(=O)Nc1cccc(NC(=O)Cc2ccccc2)c1", "biofilm OD600 B-score": -0.107}, {"smiles": "O=C(CSc1ccccn1)c1ccc(F)cc1", "biofilm OD600 B-score": -0.00801}, {"smiles": "CC1(C)CC(C#N)(N2CCOCC2)CCO1", "note": "(stereo not given)", "biofilm OD600 B-score": 0.476}, {"smiles": "Cc1cc(C)c(S(=O)(=O)N2CCOCC2)c(C)c1", "biofilm OD600 B-score": 0.101}, {"smiles": "COc1ccccc1NC(=O)N1CCc2ccccc2C1", "biofilm OD600 B-score": 0.705}, {"smiles": "O=C(Nc1cnc2ccccc2c1)N(c1ccccc1)c1ccccc1", "biofilm OD600 B-score": 0.732}, {"smiles": "Cc1cc(C)nc(NC(=O)C2C3C=CC(C3)C2C(=O)O)c1", "note": "(stereo not given)", "biofilm OD600 B-score": 0.206}, {"smiles": "O=S(=O)(Nc1ccc2c(c1)OCO2)c1ccccc1", "biofilm OD600 B-score": -0.393}, {"smiles": "CC1CCC(N2CCN(c3ncccn3)CC2)C1", "note": "(stereo not given)", "biofilm OD600 B-score": 1.1}, {"smiles": "O=C(CN1CCOCC1)NC12CC3CC(CC(C3)C1)C2", "biofilm OD600 B-score": 0.0437}, {"smiles": "COCCNS(=O)(=O)c1cc(C)c(C)cc1OC", "biofilm OD600 B-score": 2.54}, {"smiles": "CC(NC(=O)C(C)(C)Oc1ccc(Cl)cc1)c1ccncc1", "note": "(stereo not given)", "biofilm OD600 B-score": 2.05}, {"smiles": "O=C(Nc1ccccc1C(=O)N1CCOCC1)c1ccccc1Cl", "biofilm OD600 B-score": -0.183}, {"smiles": "CCN(CC)C(=O)C1CCCN(Cc2cccc(OC)c2)C1", "note": "(stereo not given)", "biofilm OD600 B-score": 0.36}, {"smiles": "NS(=O)(=O)c1ccc(NC(=O)c2ccco2)cc1", "biofilm OD600 B-score": 2.2}, {"smiles": "CSc1ccc(CN(C)C2CCN(C)CC2)cc1", "biofilm OD600 B-score": -0.203}, {"smiles": "CC(C)(Oc1ccc(Cl)cc1)C(=O)Nc1ncn[nH]1", "biofilm OD600 B-score": -0.8}, {"smiles": "COc1ccc(-c2nc(N)sc2C)c(OC)c1", "biofilm OD600 B-score": 0.13}, {"smiles": "O=C(Nc1nnc(C2CC2)s1)c1csc2ccccc12", "biofilm OD600 B-score": 1.1}, {"smiles": "N#Cc1ccc(-c2cccs2)[nH]c1=O", "biofilm OD600 B-score": -1.62}, {"smiles": "OCCN1CCN(CC2CC=CCC2)CC1", "note": "(stereo not given)", "biofilm OD600 B-score": -0.629}, {"smiles": "COc1ccccc1CC(=O)N1CCN(c2ccccn2)CC1", "biofilm OD600 B-score": -0.319}, {"smiles": "O=C(NN1CCOCC1)c1ccc(Cl)cc1Cl", "biofilm OD600 B-score": -1.04}, {"smiles": "CN(C)c1ccnc2sc(C(N)=O)c(N)c12", "biofilm OD600 B-score": 0.487}, {"smiles": "COc1cc(OC)c(NC(=O)c2cccnc2)cc1Cl", "biofilm OD600 B-score": 0.0977}, {"smiles": "CCC(C)(C)C(=O)NCc1cccnc1", "biofilm OD600 B-score": 0.906}]}]}
